No constants are given. Whether binding was seen depends on the method and setting. Binding seen in cells or lysates may run through a third protein. Here binding means that the protein was enriched with, or labelled near, the bait; the list need not be complete. Sequences can lack the tags named with a protein.

The record followed here is paper PMC4215536.

Assay [1] addresses T1, HaloTag fusion of full-length mouse FCHo2 (amino acids 1-809) (M. musculus) (UniProt Q3UQN2).
T1 sequence: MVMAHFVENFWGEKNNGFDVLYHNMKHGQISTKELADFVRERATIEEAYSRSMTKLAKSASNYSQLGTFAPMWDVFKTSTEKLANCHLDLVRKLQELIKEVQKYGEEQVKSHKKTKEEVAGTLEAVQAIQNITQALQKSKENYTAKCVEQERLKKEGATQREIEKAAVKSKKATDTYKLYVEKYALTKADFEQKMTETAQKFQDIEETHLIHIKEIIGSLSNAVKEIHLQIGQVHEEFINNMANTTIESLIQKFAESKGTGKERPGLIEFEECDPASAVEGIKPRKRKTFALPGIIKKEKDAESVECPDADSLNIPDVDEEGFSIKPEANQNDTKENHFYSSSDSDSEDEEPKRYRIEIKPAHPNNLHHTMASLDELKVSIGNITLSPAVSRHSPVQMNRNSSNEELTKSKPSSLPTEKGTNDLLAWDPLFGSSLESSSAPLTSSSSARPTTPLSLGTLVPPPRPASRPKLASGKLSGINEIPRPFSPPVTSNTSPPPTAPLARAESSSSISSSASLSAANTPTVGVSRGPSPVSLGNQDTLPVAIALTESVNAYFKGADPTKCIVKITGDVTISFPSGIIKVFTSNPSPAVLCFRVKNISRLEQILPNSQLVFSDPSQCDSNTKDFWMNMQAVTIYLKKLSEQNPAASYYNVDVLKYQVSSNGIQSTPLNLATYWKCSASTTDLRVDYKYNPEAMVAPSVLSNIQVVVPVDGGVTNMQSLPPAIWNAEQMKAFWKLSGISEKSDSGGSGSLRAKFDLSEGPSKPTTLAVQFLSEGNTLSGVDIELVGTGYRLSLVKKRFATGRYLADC
In words: affinity purification with mass spectrometry; HaloTag fusion baits expressed in HEK293T cells; HaloLink magnetic beads; release with AcTEV protease; TCA precipitation; MudPIT; proteins also found in the HaloTag-alone control removed.

Assay [2] has as its target T2, HaloTag fusion of mouse FCHo2 without the F-BAR domain (amino acids 263-809) (M. musculus) (UniProt Q3UQN2).
T2 sequence: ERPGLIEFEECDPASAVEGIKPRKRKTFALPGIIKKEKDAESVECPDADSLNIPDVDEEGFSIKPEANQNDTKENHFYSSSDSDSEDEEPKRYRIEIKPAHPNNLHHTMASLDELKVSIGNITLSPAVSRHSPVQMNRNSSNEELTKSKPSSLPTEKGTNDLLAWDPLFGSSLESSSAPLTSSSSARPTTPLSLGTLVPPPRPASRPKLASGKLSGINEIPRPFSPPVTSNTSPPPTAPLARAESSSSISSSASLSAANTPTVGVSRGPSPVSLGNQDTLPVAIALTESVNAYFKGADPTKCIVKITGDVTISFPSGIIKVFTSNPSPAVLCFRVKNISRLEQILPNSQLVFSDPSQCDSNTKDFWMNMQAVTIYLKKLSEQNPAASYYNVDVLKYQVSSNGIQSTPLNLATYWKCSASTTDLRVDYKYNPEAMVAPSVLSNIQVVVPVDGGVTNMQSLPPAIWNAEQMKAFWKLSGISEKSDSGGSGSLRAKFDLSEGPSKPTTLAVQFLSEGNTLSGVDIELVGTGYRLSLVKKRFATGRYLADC
The assay is described as above.

B1: Epidermal growth factor receptor substrate 15 (EPS15), endogenous human (protein, UniProt P42566 1-896)
chain: MAAAAQLSLTQLSSGNPVYEKYYRQVDTGNTGRVLASDAAAFLKKSGLPDLILGKIWDLADTDGKGILNKQEFFVALRLVACAQNGLEVSLSSLNLAVPPPRFHDTSSPLLISGTSAAELPWAVKPEDKAKYDAIFDSLSPVNGFLSGDKVKPVLLNSKLPVDILGRVWELSDIDHDGMLDRDEFAVAMFLVYCALEKEPVPMSLPPALVPPSKRKTWVVSPAEKAKYDEIFLKTDKDMDGFVSGLEVREIFLKTGLPSTLLAHIWSLCDTKDCGKLSKDQFALAFHLISQKLIKGIDPPHVLTPEMIPPSDRASLQKNIIGSSPVADFSAIKELDTLNNEIVDLQREKNNVEQDLKEKEDTIKQRTSEVQDLQDEVQRENTNLQKLQAQKQQVQELLDELDEQKAQLEEQLKEVRKKCAEEAQLISSLKAELTSQESQISTYEEELAKAREELSRLQQETAELEESVESGKAQLEPLQQHLQDSQQEISSMQMKLMEMKDLENHNSQLNWCSSPHSILVNGATDYCSLSTSSSETANLNEHVEGQSNLESEPIHQESPARSSPELLPSGVTDENEVTTAVTEKVCSELDNNRHSKEEDPFNVDSSSLTGPVADTNLDFFQSDPFVGSDPFKDDPFGKIDPFGGDPFKGSDPFASDCFFRQSTDPFATSSTDPFSAANNSSITSVETLKHNDPFAPGGTVVAASDSATDPFASVFGNESFGGGFADFSTLSKVNNEDPFRSATSSSVSNVVITKNVFEETSVKSEDEPPALPPKIGTPTRPCPLPPGKRSINKLDSPDPFKLNDPFQPFPGNDSPKEKDPEIFCDPFTSATTTTNKEADPSNFANFSAYPSEEDMIEWAKRESEREEEQRLARLNQQEQEDLELAIALSKSEISEA
Take B1: the binding entry in assay [1] and in assay [2] was “binds” in each case.
